US20260193365A1 (GRANITE BIO, published 2026)
These are yes or no findings as the source states them, for the method shown. Binding can be weak; no strength is given. Blank lines part the entries; values can stand above or below the binder they belong to.

Columns and labels:
[1] = biological target: Marmoset monkey (Callithrix jacchus) CCR2 (Marmoset monkey (Callithrix jacchus)); test: cell binding, primary marmoset monocytes
[2] = biological target: Marmoset monkey (Callithrix jacchus) CCR2 (Marmoset monkey (Callithrix jacchus)); test: cell binding, primary marmoset PBMC

binding [1]: binds
B1: DOC2 (antibody, V domains shown)
VH: EVQLVESGGGLVKPGGSLKLSCVASGFTLSNYAMSWVRQSPEKRLEWVAEVSSSGIYIYYSDTVTGRFSISRDNAKNTLYLEMSSLRSEDTAIYYCARDRYAYAMDYWGHGTSVIVSS
VL: DIVMTQSPSSLAISVGQRVTLSCKSSQSLLNSYNQKNSLAWYQQKPGQSPKLLVYFASTRESGVPDRFIGSGSGTYFTLTITSVQAGDLADYFCQQHYSNPRTFGGGTRLEIK

binding [2]: binds
B2: DOC2 chim. (antibody, human IgG1, kappa, V domains shown)
VH: B1 VH
VL: DIVMTQSPSSLAISVGQRVTLSCKSSQSLLNSYNQKNSLAWYQQKPGQSPKLLVYFASTRESGVPDRFIGSGSGTYFTLTITSVQAGDLADYFCQQHYSNPRTFGGGTRLEIKR

binding [1]: binds
B3: DOC2-RHAXRKA FR2 (antibody, human IgG1, kappa, V domains shown)
VH: EVQLVESGGGVVQPGRSLRLSCAASGFTLSNYAMSWVRQAPGKGLEWVAEVSSSGIYIYYSDTVTGRFTISRDNSKNTLYLQMNSLRAEDTAVYYCARDRYAYAMDYWGQGTLVTVSS
VL: DIVMTQSPDSLAVSLGERATINCKSSQSLLNSYNQKNSLAWYQQKPGQSPKLLVYFASTRESGVPDRFSGSGSGTDFTLTISSLQAEDVAVYYCQQHYSNPRTFGGGTKLEIKR
